Patent WO2021084104A1
Results are given in words; binding and its absence hold for the method and conditions named. A result given as binding can be weak or reduced; the word gives no strength. Blank lines part the entries; values can stand above or below the binder they belong to.

Tests used:
[1] = target: CD40 extracellular domain (amino acids 1-193) with 8x His-tag (human); assay: ELISA on recombinant protein (Fig. 6A)
[2] = target: OX40 extracellular domain (amino acids 1-216) with 8x His-tag (human); assay: ELISA on recombinant protein (Fig. 6A)
[3] = target: CD40 extracellular domain (amino acids 1-193) with 8x His-tag (human); assay: Biacore, IgG captured on anti-human IgG, sequential antigen additions at 800 nM
[4] = target: OX40 extracellular domain (amino acids 1-216) with 8x His-tag (human); assay: as above
[5] = target: OX40 extracellular domain (amino acids 1-216) with 8x His-tag (human); assay: dose response ELISA on recombinant protein after incubation in 50% human serum (Fig. 15 B)
[6] = target: CD40 extracellular domain (amino acids 1-193) with 8x His-tag (human); assay: ELISA, IgG captured on anti-human-Fc, non-biotinylated antigen titrated from 400 nM, biotinylated antigen detected (Fig. 8 A)
[7] = target: OX40 extracellular domain (amino acids 1-216) with 8x His-tag (human); assay: as above
[8] = target: CD40 extracellular domain (amino acids 1-193) with 8x His-tag (human); assay: ELISA on recombinant protein (Fig. 7)
[9] = target: OX40 extracellular domain (amino acids 1-216) with 8x His-tag (human); assay: ELISA on recombinant protein (Fig. 7)
[10] = target: CD40 extracellular domain (amino acids 1-193) with 8x His-tag (human); assay: ELISA after incubation in 50% human serum at +37°C for up to 7 days
[11] = target: OX40 extracellular domain (amino acids 1-216) with 8x His-tag (human); assay: as above
[12] = target: CD40 extracellular domain (amino acids 1-193) with 8x His-tag (human); assay: Biacore, IgG captured, antigens at 800 nM (Fig. 9 A and B)
[13] = target: OX40 extracellular domain (amino acids 1-216) with 8x His-tag (human); assay: as above
[14] = target: CD40 extracellular domain (amino acids 1-193) with 8x His-tag (human); assay: ELISA on recombinant protein
[15] = target: OX40 extracellular domain (amino acids 1-216) with 8x His-tag (human); assay: ELISA on recombinant protein
[16] = target: CD40 extracellular domain (amino acids 1-193) with 8x His-tag (human); assay: dose response ELISA on recombinant protein after incubation in 50% human serum (Fig. 15 A)
[17] = target: 4-1BB extracellular domain (amino acids 1-186) with 8x His-tag (human); assay: ELISA, IgG captured on anti-human-Fc, non-biotinylated antigen titrated, biotinylated antigen detected
[18] = target: OX40 extracellular domain (amino acids 1-216) with 8x His-tag (human); assay: as above
[19] = target: 4-1BB extracellular domain (amino acids 1-186) with 8x His-tag (human); assay: Biacore, IgG captured on anti-human IgG, sequential antigen additions at 800 nM
[20] = target: 4-1BB extracellular domain (amino acids 1-186) with 8x His-tag (human); assay: dose response ELISA on recombinant protein after incubation in 50% human serum (Fig. 15 D)
[21] = target: 4-1BB extracellular domain (amino acids 1-186) with 8x His-tag (human); assay: Biacore, IgG captured, antigens at 800 nM (Fig. 9 C and D)
[22] = target: CD40 extracellular domain (amino acids 1-193) with 8x His-tag (human); assay: as above
[23] = target: 4-1BB extracellular domain (amino acids 1-186) with 8x His-tag (human); assay: ELISA after incubation in 50% human serum at +37°C for up to 7 days
[24] = target: CD40 extracellular domain (amino acids 1-193) with 8x His-tag (human); assay: dose response ELISA on recombinant protein after incubation in 50% human serum (Fig. 15 C)
[25] = target: 4-1BB extracellular domain (amino acids 1-186) with 8x His-tag (human); assay: ELISA on recombinant protein (Fig. 6C)
[26] = target: OX40 extracellular domain (amino acids 1-216) with 8x His-tag (human); assay: ELISA on recombinant protein (Fig. 6C)
[27] = target: OX40 extracellular domain (amino acids 1-216) with 8x His-tag (human); assay: dose response ELISA on recombinant protein after incubation in 50% human serum (Fig. 15 E)
[28] = target: 4-1BB extracellular domain (amino acids 1-186) with 8x His-tag (human); assay: dose response ELISA on recombinant protein after incubation in 50% human serum (Fig. 15 F)
[29] = target: 4-1BB extracellular domain (amino acids 1-186) with 8x His-tag (human); assay: ELISA on recombinant protein
[30] = target: 4-1BB extracellular domain (amino acids 1-186) with 8x His-tag (human); assay: Biacore, IgG captured, antigens at 800 nM (Fig. 9 E and F)
[31] = target: OX40 extracellular domain (amino acids 1-216) with 8x His-tag (human); assay: as above
[32] = target: 4-1BB extracellular domain (amino acids 1-186) with 8x His-tag (human); assay: ELISA on recombinant protein (Fig. 6B)
[33] = target: CD40 extracellular domain (amino acids 1-193) with 8x His-tag (human); assay: ELISA on recombinant protein (Fig. 6B)
[34] = target: CD40 extracellular domain (amino acids 1-193) with 8x His-tag (human); assay: ELISA, IgG captured on anti-human-Fc, non-biotinylated antigen titrated, biotinylated antigen detected

binding [1]: binds | binding [2]: binds | binding [3]: binds | binding [4]: binds | binding [5]: binds | binding [6]: binds | binding [7]: binds | binding [8]: binds | binding [9]: binds | binding [10]: binds | binding [11]: binds | binding [12]: binds | binding [13]: binds | binding [14]: binds | binding [15]: binds | binding [16]: binds
B1: tetra VH IgG #2 (VH-CH1=OX40 #2, VH-CL=CD40 #5) (bispecific antibody, V domains shown, not shown: a dimerising Fc or GST)
V domain 1: EVQLLESGGGLVQPGGSLRLSCAASGFTFSSYAMSWVRQAPGKGLEWVSGVSGGGGSTYYADSVRGRFTISRDNSKNTLYLQMNSLRAEDTAVYYCARGWDDINVWGQGTLVTVSS
V domain 2: EVQLLESGGGLVQPGGSLRLSCAASGFTFSSYTMDWVRQAPGKGLEWVSSISESGDTTDYADSVKGRFTISRDNSKNTLYLQMNSLRAEDTAVYYCARCSGGSCYSVNWGQGTLVTVSS

binding [8]: binds | binding [9]: binds | binding [14]: binds | binding [15]: binds
B2: tetra VH IgG #5 (VH-CH1=CD40 #5, VH-CL=OX40 #2) (bispecific antibody, V domains shown, not shown: a dimerising Fc or GST)
V domain 1: B1 V domain 2
V domain 2: B1 V domain 1

binding [17]: binds | binding [18]: binds
B3: tetra VH IgG #3 (VH-CH1=41BB #2, VH-CL=OX40 #2) (bispecific antibody, V domains shown, not shown: a dimerising Fc or GST)
V domain 1: EVQLLESGGGLVQPGGSLRLSCAASGFTFGDYAMSWFRQAPGKGLEWVAVISDDGSNKYYADSVMGRFTISRDNSKNTLYLQMNSLRAEDTAMYYCAGHYDYVWGSFRYGAFDIWGQGTLVTVSS
V domain 2: B1 V domain 1

binding [19]: binds | binding [3]: binds | binding [20]: binds | binding [21]: binds | binding [22]: binds | binding [23]: binds | binding [10]: binds | binding [24]: binds
B4: tetra-VH IgG #19 (VH-CH1=41BB #4, VH-CL=CD40 #5) (bispecific antibody, V domains shown, not shown: a dimerising Fc or GST)
V domain 1: EVQLLESGGGLVQPGGSLRLSCAASGFTFGDYAMSWFRQAPGKGLEWVAVLSYDGSNTDYADSVKGRFTISRDNSKNTLYLQMNSLRAEDTAVYYCAKGPLILAAGNYWGQGTLVTVSS
V domain 2: B1 V domain 2

binding [19]: binds | binding [4]: binds | binding [25]: binds | binding [26]: binds | binding [27]: binds | binding [23]: binds | binding [11]: binds | binding [28]: binds | binding [29]: binds | binding [15]: binds | binding [30]: binds | binding [31]: binds
B5: tetra VH IgG #20 (VH-CH1=41BB #4, VH-CL=OX40 #2) (bispecific antibody, V domains shown, not shown: a dimerising Fc or GST)
V domain 1: B4 V domain 1
V domain 2: B1 V domain 1

binding [32]: binds | binding [33]: binds | binding [17]: binds | binding [34]: binds | binding [29]: binds | binding [14]: binds
B6: tetra VH IgG #4 (VH-CH1=41BB #4, VH-CL=CD40 #3) (bispecific antibody, V domains shown, not shown: a dimerising Fc or GST)
V domain 1: B4 V domain 1
V domain 2: EVQLLESGGGLVQPGGSLRLSCAASGFTFSSYAMSWVRQAPGKGLEWVSRLNSDGITATYADSVKGRFTISRDNSKNTLYLQMNSLRAEDTAVYYCARGKIPAIDHWGQGTLVTVSS
